PubChem BioAssay AID1259424, University of Nebraska Medical Center | 2018

Test: 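Seek colon cancer survival genes behaving like KSR1, using a six-gene signature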 (primary screen)
System: human HCT116 colon cancer cells
Reagents: siRNA pool against human genes, 50 nM
Detection: 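Log2 levels of six mRNAs (branched-DNA multiplex), adjusted by two reference genes and the non-targeting median, then scored against the average KSR1 knockdown pattern as Pearson r and euclidean distance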
Scale: mean correlation with KSR1 profile: higher = expression change more like KSR1 knockdown
Here is a random part of about 14,000 reagents. 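Higher correlation or smaller distance means closer resemblance to KSR1 loss; control wells, including KSR1 knockdowns, recur on many plates.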 The numbers tell different reagents against one gene apart. Not all columns of the deposit are shown. No sequences are given here. The record does not give: the time to read-out.

NTN4
- mean correlation with KSR1 profile: 0.00692

POLR2B
- mean correlation with KSR1 profile: -0.304

GCNT2
- mean correlation with KSR1 profile: -0.41

PABPC1
- mean correlation with KSR1 profile: -0.504

TCAF1
- mean correlation with KSR1 profile: -0.337

CD101
- mean correlation with KSR1 profile: -0.413

ZMIZ1
- mean correlation with KSR1 profile: -0.209

ZNF117 #1
- mean correlation with KSR1 profile: 0.281

ZNF117 #2
- mean correlation with KSR1 profile: -0.424

Quoted from above, 4 entries:
GCNT2
- mean correlation with KSR1 profile: -0.41

PABPC1
- mean correlation with KSR1 profile: -0.504

TCAF1
- mean correlation with KSR1 profile: -0.337

CD101
- mean correlation with KSR1 profile: -0.413

Next reagents follow:
CA7
- mean correlation with KSR1 profile: 0.116

LRCH4
- mean correlation with KSR1 profile: 0.216

LMX1B
- mean correlation with KSR1 profile: 0.0466

EIF3J
- mean correlation with KSR1 profile: -0.127

ZNF490
- mean correlation with KSR1 profile: 0.168

DHRS7B
- mean correlation with KSR1 profile: -0.305

PHLPP1
- mean correlation with KSR1 profile: 0.505

DCTN6
- mean correlation with KSR1 profile: 0.000967

F9
- mean correlation with KSR1 profile: -0.1

ITSN1
- mean correlation with KSR1 profile: 0.231

ZNF267
- mean correlation with KSR1 profile: -0.0783

SMG7
- mean correlation with KSR1 profile: -0.0451

TMEM168
- mean correlation with KSR1 profile: 0.0627

HSFY2
- mean correlation with KSR1 profile: 0.142

PRKG1
- mean correlation with KSR1 profile: 0.485

GH1
- mean correlation with KSR1 profile: -0.572

GSTA4
- mean correlation with KSR1 profile: 0.443

POT1
- mean correlation with KSR1 profile: 0.181

NR5A1
- mean correlation with KSR1 profile: 0.257
